According to article PMC7919836:
No constants are given. Whether binding was seen depends on the method and setting. Binding seen in cells or lysates may run through a third protein. Some results given as binding are weak or reduced against the parent protein; the word gives no strength. Where a sequence is shown, tags or fusion partners need not be part of it.

Legend:
Assay in all cases: pull-down; SFB-tagged DUB (or OTUD6A full length or truncated) and MYC-tagged Aurora-A (full length or truncated) co-transfected into HEK293T; lysis in NETN buffer; DUB pulled down with S-protein beads at 4 °C overnight; Aurora-A blotted with MYC antibody
SFB-tagged MYSM1 (human) = target: T1, SFB-tagged MYSM1 (human) (UniProt Q5VVJ2)
T1 sequence: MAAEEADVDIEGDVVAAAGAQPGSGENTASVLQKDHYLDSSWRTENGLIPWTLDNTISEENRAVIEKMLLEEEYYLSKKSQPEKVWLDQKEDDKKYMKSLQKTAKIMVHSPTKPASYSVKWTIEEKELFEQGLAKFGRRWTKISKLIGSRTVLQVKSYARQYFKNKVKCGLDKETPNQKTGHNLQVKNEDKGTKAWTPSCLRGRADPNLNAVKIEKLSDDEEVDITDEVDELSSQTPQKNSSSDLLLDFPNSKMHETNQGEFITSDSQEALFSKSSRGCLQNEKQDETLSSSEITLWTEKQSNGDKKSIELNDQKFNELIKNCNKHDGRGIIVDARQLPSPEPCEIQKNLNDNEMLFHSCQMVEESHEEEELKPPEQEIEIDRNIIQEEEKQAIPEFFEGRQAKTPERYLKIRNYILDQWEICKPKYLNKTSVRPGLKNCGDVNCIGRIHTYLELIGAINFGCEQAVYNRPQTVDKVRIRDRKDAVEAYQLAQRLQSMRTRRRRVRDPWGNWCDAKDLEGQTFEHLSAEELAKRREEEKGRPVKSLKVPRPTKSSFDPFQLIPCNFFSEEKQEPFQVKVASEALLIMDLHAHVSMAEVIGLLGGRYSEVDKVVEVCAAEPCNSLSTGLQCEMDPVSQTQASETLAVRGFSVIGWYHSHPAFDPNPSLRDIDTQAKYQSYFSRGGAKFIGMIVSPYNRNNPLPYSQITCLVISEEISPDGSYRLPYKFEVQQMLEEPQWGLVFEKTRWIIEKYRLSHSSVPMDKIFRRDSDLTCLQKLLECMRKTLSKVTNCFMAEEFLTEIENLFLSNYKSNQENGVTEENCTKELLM

SFB-tagged USP4 (human) = target: T2, SFB-tagged USP4 (human) (UniProt Q13107)
T2 sequence: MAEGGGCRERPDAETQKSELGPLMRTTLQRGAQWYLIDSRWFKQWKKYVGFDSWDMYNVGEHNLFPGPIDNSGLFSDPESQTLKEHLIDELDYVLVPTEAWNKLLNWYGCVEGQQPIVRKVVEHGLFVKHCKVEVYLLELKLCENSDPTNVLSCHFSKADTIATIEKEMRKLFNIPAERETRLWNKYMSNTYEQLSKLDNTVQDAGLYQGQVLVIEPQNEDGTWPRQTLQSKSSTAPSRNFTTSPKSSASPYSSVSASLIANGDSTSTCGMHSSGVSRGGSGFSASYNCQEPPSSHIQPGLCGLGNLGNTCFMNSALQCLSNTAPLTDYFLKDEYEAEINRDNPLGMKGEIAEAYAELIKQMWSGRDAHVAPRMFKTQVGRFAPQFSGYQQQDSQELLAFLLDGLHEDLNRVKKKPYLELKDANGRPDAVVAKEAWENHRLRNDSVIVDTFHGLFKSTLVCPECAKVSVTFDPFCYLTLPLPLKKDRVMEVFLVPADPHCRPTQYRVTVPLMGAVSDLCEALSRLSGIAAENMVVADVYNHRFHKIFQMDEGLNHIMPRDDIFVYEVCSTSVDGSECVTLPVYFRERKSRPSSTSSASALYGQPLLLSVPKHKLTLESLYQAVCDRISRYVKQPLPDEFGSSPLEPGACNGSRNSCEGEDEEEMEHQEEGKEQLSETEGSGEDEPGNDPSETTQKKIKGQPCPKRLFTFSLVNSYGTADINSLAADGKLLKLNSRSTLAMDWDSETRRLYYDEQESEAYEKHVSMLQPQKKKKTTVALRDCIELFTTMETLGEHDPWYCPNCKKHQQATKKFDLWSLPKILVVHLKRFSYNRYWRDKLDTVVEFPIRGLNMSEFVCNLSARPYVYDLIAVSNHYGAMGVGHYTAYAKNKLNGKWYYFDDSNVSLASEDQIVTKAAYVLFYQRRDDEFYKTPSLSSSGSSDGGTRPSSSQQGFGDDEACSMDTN

SFB-tagged CYLD (human) = target: T3, SFB-tagged CYLD (human) (UniProt Q9NQC7)
T3 sequence: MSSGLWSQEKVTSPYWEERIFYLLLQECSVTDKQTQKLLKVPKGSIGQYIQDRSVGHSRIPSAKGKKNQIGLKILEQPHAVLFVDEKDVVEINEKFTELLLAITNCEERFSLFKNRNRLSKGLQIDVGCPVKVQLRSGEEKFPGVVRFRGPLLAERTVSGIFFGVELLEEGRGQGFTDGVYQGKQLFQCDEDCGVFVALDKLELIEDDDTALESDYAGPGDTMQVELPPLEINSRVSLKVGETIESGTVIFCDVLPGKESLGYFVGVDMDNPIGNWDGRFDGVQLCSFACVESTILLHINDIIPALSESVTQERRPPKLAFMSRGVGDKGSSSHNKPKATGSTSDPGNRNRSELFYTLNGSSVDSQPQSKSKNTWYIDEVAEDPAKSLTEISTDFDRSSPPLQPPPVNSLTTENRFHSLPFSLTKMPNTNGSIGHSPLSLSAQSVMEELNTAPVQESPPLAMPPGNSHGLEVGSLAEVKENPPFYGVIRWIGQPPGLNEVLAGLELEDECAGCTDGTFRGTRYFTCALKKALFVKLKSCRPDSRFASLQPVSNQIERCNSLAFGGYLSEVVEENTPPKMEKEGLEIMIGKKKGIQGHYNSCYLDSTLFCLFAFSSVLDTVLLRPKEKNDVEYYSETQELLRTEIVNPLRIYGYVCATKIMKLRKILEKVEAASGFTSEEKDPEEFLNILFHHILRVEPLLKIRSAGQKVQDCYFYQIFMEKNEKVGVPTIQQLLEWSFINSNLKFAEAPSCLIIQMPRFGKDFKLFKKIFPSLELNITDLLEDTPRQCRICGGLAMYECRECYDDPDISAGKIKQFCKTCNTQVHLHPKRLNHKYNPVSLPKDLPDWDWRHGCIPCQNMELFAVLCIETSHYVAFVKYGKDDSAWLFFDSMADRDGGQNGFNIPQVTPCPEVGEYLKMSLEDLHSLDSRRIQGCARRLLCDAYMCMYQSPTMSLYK

Measured: binding

B1: MYC-tagged Aurora kinase A, full-length wild type (aa 1-403) (protein, UniProt O14965 1-403)
chain: MDRSKENCISGPVKATAPVGGPKRVLVTQQFPCQNPLPVNSGQAQRVLCPSNSSQRIPLQAQKLVSSHKPVQNQKQKQLQATSVPHPVSRPLNNTQKSKQPLPSAPENNPEEELASKQKNEESKKRQWALEDFEIGRPLGKGKFGNVYLAREKQSKFILALKVLFKAQLEKAGVEHQLRREVEIQSHLRHPNILRLYGYFHDATRVYLILEYAPLGTVYRELQKLSKFDEQRTATYITELANALSYCHSKRVIHRDIKPENLLLGSAGELKIADFGWSVHAPSSRRTTLCGTLDYLPPEMIEGRMHDEKVDLWSLGVLCYEFLVGKPPFEANTYQETYKRISRVEFTFPDFVTEGARDLISRLLKHNPSQRPMLREVLEHPWITANSSKPSNCQNKESASKQS
binds: all assays above
